Results reported in paper PMC4588571.
These are yes or no findings as the source states them, for the method shown. Where a sequence is shown, tags or fusion partners need not be part of it.

Tests used:
Test in all cases: two-hybrid; yeast strain Y187; β-galactosidase colony lift filter assay (lacZ reporter); DmVas constructs as GAL4 DNA-binding domain baits (pAS2-1), Osk or Vls as GAL4 activation domain preys (pACT2)
[1] = biological target: T1, DmVas^470–661, GAL4 DNA-binding domain fusion (Drosophila melanogaster) (UniProt P09052)
T1 sequence: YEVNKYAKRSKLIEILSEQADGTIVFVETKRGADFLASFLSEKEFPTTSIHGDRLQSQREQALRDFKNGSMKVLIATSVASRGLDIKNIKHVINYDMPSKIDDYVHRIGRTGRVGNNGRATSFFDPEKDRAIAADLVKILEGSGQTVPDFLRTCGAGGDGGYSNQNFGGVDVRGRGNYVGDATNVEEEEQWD

[2] = biological target: T2, DmVas^460–661, GAL4 DNA-binding domain fusion (Drosophila melanogaster) (UniProt P09052)
T2 sequence: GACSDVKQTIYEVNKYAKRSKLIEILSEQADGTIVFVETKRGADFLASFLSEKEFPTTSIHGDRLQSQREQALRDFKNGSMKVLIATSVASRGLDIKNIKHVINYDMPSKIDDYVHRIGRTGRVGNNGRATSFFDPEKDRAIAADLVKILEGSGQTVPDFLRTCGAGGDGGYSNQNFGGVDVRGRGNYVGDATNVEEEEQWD

[3] = biological target: T3, Drosophila Vasa, full length (1–661), GAL4 DNA-binding domain fusion (Drosophila melanogaster) (UniProt P09052)
T3 sequence: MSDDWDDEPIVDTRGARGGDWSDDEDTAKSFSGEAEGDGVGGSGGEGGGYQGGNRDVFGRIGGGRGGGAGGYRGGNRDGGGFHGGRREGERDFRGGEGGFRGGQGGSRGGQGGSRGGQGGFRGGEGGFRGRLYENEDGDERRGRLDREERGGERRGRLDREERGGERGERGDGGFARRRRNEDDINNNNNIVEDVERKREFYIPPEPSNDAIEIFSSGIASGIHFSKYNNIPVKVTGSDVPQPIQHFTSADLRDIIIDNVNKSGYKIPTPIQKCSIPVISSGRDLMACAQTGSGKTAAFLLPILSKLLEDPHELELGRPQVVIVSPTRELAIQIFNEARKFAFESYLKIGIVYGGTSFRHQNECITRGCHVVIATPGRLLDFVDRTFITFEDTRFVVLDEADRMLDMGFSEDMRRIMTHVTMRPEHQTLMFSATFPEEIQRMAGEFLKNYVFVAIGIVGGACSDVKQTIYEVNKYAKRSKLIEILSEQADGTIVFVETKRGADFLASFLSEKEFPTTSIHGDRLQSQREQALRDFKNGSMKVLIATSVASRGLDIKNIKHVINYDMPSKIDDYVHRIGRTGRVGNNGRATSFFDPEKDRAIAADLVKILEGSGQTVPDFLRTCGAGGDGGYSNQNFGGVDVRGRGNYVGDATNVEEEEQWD

Measured: binding

B1: Valois, full length, GAL4 activation domain fusion (protein, UniProt Q9VIP8 1-367)
chain: MFPQRSSELYRTPVTHQPPPALELAGNLEYPNLNIADLNARLENLSPRLHDCWDSIAINDHNHLALATNRREGRQWWGMLFGYGRDQMHHMSVDSANFKLQAEHTVNIVRYAEDDFLLVALGDTRLQAWSTYSKVRDSQSPYCLFLVGESSAHPTPISQLSVFKADPRTAVSGSADSTLNVWDLSGADMVSTYRSRSSHTDKLTGLATPAASVDKFVTCDRGGCARLWDVRAAAPSSTCLYADASHVLSFTSAAWAAASELQGDNHIYLGDYDGKVHTLDIRVPRKLAETREYFDKGHVAQLLINGPHLAAMSNLPASVKVANVQAGHEFIYTHQDTHSRLTDAVWTDDSTLITIGHGRKMVTHAIK
no binding: all assays above
